The record followed here is the supplement of paper PMC3682954.

Each structure is given as a SMILES string. Values joined by “and” are separate entries in the source; they are usually repeats but may differ in a detail not shown here. Equal values may be shown once. Where a name gives a salt, the structure may show the parent alone. ± gives the standard deviation of the averaged measurements. The list shows a part of the results. Many values rest on one well or one pass, so single values are uncertain.

The subject of the experiment is RAW 264.7. As to the kind of experiment: cell viability (MTT) relative to vehicle control; higher = more viable cells. Particulars: stimulus: HMGB1 5 ug/ml, 18 h.
Where [1] appears, read: compound concentration: 1 ug/ml.

Take `O=c1cc(-c2ccc(O)cc2)oc2cc(O)ccc12` [4',7-Dihydroxyflavone]: the cell viability under setting [1] is 99.3%.
In the case of `COC(=O)C1=C(C)NC(C)=C(C(=O)OCC(C)C)C1c1ccccc1[N+](=O)[O-]` (stereo not given), the cell viability (compound concentration: 3 uM) was determined as 104 ± 7.9%.
As to `COC(=O)C1=C(C)NC(C)=C(C(=O)OCC(C)C)C1c1ccccc1[N+](=O)[O-]` (stereo not given) [Nisoldipine], for the setting “compound concentration: 3 uM”, the cell viability was found to be 102 ± 12%.
`COc1ccc(-c2cc(=O)c3c(OC)cccc3o2)cc1` [4',5-Dimethoxyflavone]: under setting [1], the cell viability is 107%.
With `COc1c2ccoc2cc2oc(=O)ccc12`, the cell viability (compound concentration: 3 uM) was determined as 106%.
Turning to `COc1c2ccoc2cc2oc(=O)ccc12` [Bergapten; 5-Methoxypsoralen, 99%], under setting [1], the cell viability was determined as 92.3%.
With `CCCCCCCCCCCC1=C(O)C(=O)C=C(O)C1=O` [Embelin], the cell viability under setting [1] was 84.6%.
Consider `NC(=O)NC1NC(=O)NC1=O` (stereo not given) [Allantoin], for which the cell viability (compound concentration: 3 uM) came to 109%.
For `NC(=O)NC1NC(=O)NC1=O` (stereo not given), the cell viability (compound concentration: 3 uM) was determined as 100%.
`CN(C)CCOC(c1ccc(Cl)cc1)c1ccccn1` (stereo not given) [Carbinoxamine maleate salt]: the cell viability (compound concentration: 3 uM) is 90.6%.
As for `CN(C)CCOC(c1ccc(Cl)cc1)c1ccccn1` (stereo not given), the cell viability (compound concentration: 3 uM) was 111%.
As to `O=C1CCc2ccc(OCCCCN3CCN(c4cccc(Cl)c4Cl)CC3)cc2N1`, where the note is “compound concentration: 3 uM”, the cell viability worked out at 89.5 ± 6.2%.
For the compound `O=C1CCc2ccc(OCCCCN3CCN(c4cccc(Cl)c4Cl)CC3)cc2N1` [Aripiprazole], the cell viability (compound concentration: 3 uM) was determined as 105 ± 9.8%.
Take `Cc1ccccc1C(OCCN(C)C)c1ccccc1` (stereo not given): the cell viability (compound concentration: 3 uM) is 105%.
As to `Cc1ccccc1C(OCCN(C)C)c1ccccc1` (stereo not given) [Orphenadrine hydrochloride], under “compound concentration: 3 uM”, the cell viability is 118 ± 20%.
For `NCCNS(=O)(=O)c1cccc2c(Cl)cccc12` [A3 hydrochloride], the cell viability (compound concentration: 3 uM) is 99.9%.
In the case of `CC(C)NCC(O)c1ccc(O)c(O)c1` (single isomer, unassigned; (-)) [(-)-Isoproterenol hydrochloride], the cell viability (compound concentration: 3 uM) was determined as 91.2 ± 3.7%.
With `O=C1C(O)=C([C@H]2CC[C@H](c3ccc(Cl)cc3)CC2)C(=O)c2ccccc21` [Atovaquone], the cell viability (compound concentration: 3 uM) amounted to 93.5 ± 24%.
For the compound `O=C1C(O)=C([C@H]2CC[C@H](c3ccc(Cl)cc3)CC2)C(=O)c2ccccc21`, the cell viability (compound concentration: 3 uM) is 104 ± 28%.
`Cc1cc2c(C(C)C)c(O)c(O)c(/C=N/Nc3nc4ccccc4[nH]c3=O)c2c(O)c1-c1c(C)cc2c(C(C)C)c(O)c(O)c(/C=N/Nc3nc4ccccc4[nH]c3=O)c2c1O`: the cell viability under setting [1] is 111%.
`CN1CCC(=C2c3ccccc3CCc3sccc32)CC1` [Pizotifen malate]: the cell viability (compound concentration: 3 uM) was determined as 80.3%.
On to `CN1CCC(=C2c3ccccc3CCc3sccc32)CC1` [Pizotyline], for which the cell viability (compound concentration: 3 uM) worked out at 93.2%.
With `CN1CCC(=C2c3ccccc3CCc3sccc32)CC1`, the cell viability (compound concentration: 3 uM) came to 98%.
For the compound `N=C(N)NCCCCN` [Agmatine sulfate], the cell viability (compound concentration: 3 uM) was 103%.
Regarding `CN1CCOC(c2ccccc2)c2ccccc2C1` (stereo not given) [Nefopam hydrochloride], the cell viability (compound concentration: 3 uM) was 105%.
The same measure, in the same setting: the value for `CN1CCOC(c2ccccc2)c2ccccc2C1` (stereo not given) was 117%; that for `COc1ccc2c(c1)CC[C@@H]1[C@@H]2CC[C@]2(C)[C@@H](NCCCCCCN3C(=O)CCC3=O)CC[C@@H]12` was 96.1%.
Turning to `CCCCNc1ccc(C(=O)OCCN(C)C)cc1` [Tetracaine hydrochloride], the cell viability (compound concentration: 3 uM) stood at 125%.
Consider `CN(C)[C@@H]1C(O)=C(C(=O)NCNCCCC[C@H](N)C(=O)O)C(=O)[C@@]2(O)C(O)=C3C(=O)c4c(O)cccc4[C@@](C)(O)[C@H]3C[C@@H]12` [Lymecycline], for which the cell viability (compound concentration: 3 uM) turned out to be 104%.
Regarding `COc1ccc(NC(=O)c2ccc(-c3ccc(-c4noc(C)n4)cc3C)cc2)cc1N1CCN(C)CC1`, the cell viability (compound concentration: 3 uM) is 97.5%.
With `CCN(CC)CCOc1ccc(C(=C(Cl)c2ccccc2)c2ccccc2)cc1` [Clomiphene citrate (Z,E)], for the setting “compound concentration: 3 uM”, the cell viability was found to be 111%.
`CCN(CC)CCOc1ccc(C(=C(Cl)c2ccccc2)c2ccccc2)cc1` [Clomiphene]: the cell viability (compound concentration: 3 uM) was determined as 107%.
Take `CCN(CC)CCOc1ccc(C(=C(Cl)c2ccccc2)c2ccccc2)cc1`: the cell viability (compound concentration: 3 uM) was found to be 92.9%.
As to `CC(COc1ccccc1Cc1ccccc1)N1CCCCC1` (stereo not given), the cell viability (compound concentration: 3 uM) was found to be 89.3%.
Regarding `CC(O)(P(=O)(O)O)P(=O)(O)O` [Etidronate], for the setting “compound concentration: 3 uM”, the cell viability was 94.6%.
Turning to `CC(O)(P(=O)(O)O)P(=O)(O)O`, the cell viability (compound concentration: 3 uM) is 106%.
Same read-out and setting: the value for `CC(O)(P(=O)(O)O)P(=O)(O)O` [Etidronic acid, disodium salt] was 98.8%; that for `CCC1NC(=O)c2cc(S(N)(=O)=O)c(Cl)cc2N1` (stereo not given) [Quinethazone] was 104%; that for `COc1ccccc1N1CCN(CCCCNC(=O)c2ccc3ccccc3c2)CC1` was 80.1% and 93.7%.
On to `O=C1[C@H](CC[C@H](O)c2ccc(F)cc2)[C@@H](c2ccc(O)cc2)N1c1ccc(F)cc1`, for which, where the note is “compound concentration: 3 uM”, the cell viability was 105 ± 8.2%.
With `O=S(=O)(O)c1cc(I)c(O)c2ncccc12`, the cell viability (compound concentration: 3 uM) was 105%.
On to `CC(C)NC[C@H](O)COc1cccc2[nH]ccc12` [S(-)-Pindolol], for which the cell viability (compound concentration: 3 uM) was determined as 108%.
Regarding `O=C(O)COCCN1CCN([C@H](c2ccccc2)c2ccc(Cl)cc2)CC1`, the cell viability (compound concentration: 3 uM) came to 95.4%.
Turning to `Cc1cnc(C(=O)NCCc2ccc(S(=O)(=O)NC(=O)NC3CCCCC3)cc2)cn1`, for the setting “compound concentration: 3 uM”, the cell viability was determined as 112%.
For `Cc1cnc(C(=O)NCCc2ccc(S(=O)(=O)NC(=O)NC3CCCCC3)cc2)cn1` [Glipizide], the cell viability (compound concentration: 3 uM) stood at 105 ± 9.8%.

The cell viability is a read-out of living cells in per cent, often relative to untreated cells.
